The values that follow come from article doi:10.1101/829416.

By UniProt entry, the sequences of proteins in these tests, tags left out.
UniProt Q9SJL8: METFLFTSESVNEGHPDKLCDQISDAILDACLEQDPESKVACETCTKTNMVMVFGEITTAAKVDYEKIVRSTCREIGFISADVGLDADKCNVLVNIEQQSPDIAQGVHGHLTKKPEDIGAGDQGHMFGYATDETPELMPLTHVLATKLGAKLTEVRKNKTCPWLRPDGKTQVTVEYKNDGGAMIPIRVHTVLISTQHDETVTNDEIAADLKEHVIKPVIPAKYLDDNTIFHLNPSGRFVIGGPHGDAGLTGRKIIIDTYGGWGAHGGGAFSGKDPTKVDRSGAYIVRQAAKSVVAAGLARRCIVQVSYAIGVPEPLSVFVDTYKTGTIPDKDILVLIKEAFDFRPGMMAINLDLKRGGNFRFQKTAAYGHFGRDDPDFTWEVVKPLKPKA

The assay deals with T1, BIN4/MID-YFP (YFP-tagged BIN4/MID in the mid-1 35S:BIN4/MID-YFP line) (Arabidopsis thaliana) (UniProt Q9FLU1).
T1 sequence: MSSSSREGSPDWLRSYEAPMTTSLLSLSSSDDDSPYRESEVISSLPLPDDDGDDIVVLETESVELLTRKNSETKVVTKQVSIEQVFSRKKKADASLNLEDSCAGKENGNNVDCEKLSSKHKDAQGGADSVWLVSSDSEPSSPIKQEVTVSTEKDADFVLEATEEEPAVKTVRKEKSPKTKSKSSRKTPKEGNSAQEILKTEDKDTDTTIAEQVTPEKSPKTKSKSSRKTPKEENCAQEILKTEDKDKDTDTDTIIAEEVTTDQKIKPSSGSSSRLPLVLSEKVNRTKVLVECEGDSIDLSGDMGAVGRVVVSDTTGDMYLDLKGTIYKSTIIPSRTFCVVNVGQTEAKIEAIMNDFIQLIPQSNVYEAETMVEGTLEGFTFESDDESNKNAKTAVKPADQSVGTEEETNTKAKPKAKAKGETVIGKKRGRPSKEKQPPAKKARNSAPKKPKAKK
Description: affinity purification with mass spectrometry.

Results are given in words; binding and its absence hold for the method and conditions named. Binding seen in cells or lysates may run through a third protein. Here binding means that the protein was enriched with, or labelled near, the bait; the list need not be complete. Sequences can lack the tags named with a protein.

“Methionine Adenosyltransferase 3 (MAT3), endogenous (from UniProt Q9SJL8 1-390) (enzyme)”: the binding result is on record as “binds”.

B1: TOP6B (Topoisomerase VI B subunit), endogenous (protein, UniProt Q9C5V6 1-670)
chain: MAGDDLVETKKGSSKNSKDSNESKLKQKSPAEFFAENKNIAGFDNPGKSLYTTVRELVENALDSAESISELPEVEVTIEEIVKSKFNSMIGLIDRERVDTQLYDDYETEKARGKRLAKEARASEIQAKNLASGKKNKEPGVSKVLKARGEASYYKVTCKDNGKGMPHDDIPNMFGRVLSGTKYGLKQTRGKFGLGAKMALIWSKMSTGLPIEISSSMKSQNYVTFCRLDIDIHRNIPHIHLHEKKGNKEKWHGAEIQVVIEGNWTTYRSKILHYMRQMAVITPYAQFLFRFISETPEKNVTIKFTRRTDVMPPIPIETKHHPSSVDLLLIKRLITDTSKKTLLQFLQNEFVNINKTLAARLIGEMGPDFGPSMAVKSVTSQQMVRIHQLFRQAKFDDPSGDCLSPAGEYNLRLGIIKELHPDMVATYSGSAQVFEGHPFIVEAGVSLGGRDVKQGINIFRFANRIPLLFEQGADVVTRTALKRINWNSYKINQTQDKIGVFVSIVSTKIPFKGTGKEYIGDDISEIATAVKSAIQQCCIQLKSKIVKRLQAREQQERKRSLSRYIPDATGAVYEVLKQMTEEHKTKRKRYGEEDIVMLDKVSKQIITKETLKEKLAEHVEQVDYEMALEYATQSGVSEEPRENIYLQHLDPNKSNFIDLHSPTFVFRLML
In the case of B1, the binding entry is reported as “binds”.

B2: RHL1 (ROOT HAIRLESS 1), endogenous (protein, UniProt O81242 1-355)
chain: MVRASSSKKGGSKGGDKDDAESKQRKRLKTLALDNQLLSDSPAKSHSSLKPSKQVLKHHGTDIIRKSQRKNRFLFSFPGLLAPISAATIGDLDRLSTKNPVLYLNFPQGRMKLFGTILYPKNRYLTLQFSRGGKNVLCDDYFDNMIVFSESWWIGTKEENPEEARLDFPKELAQAENTEFDFQGGAGGAASVKKLASPEIGSQPTETDSPEVDNEDVLSEDGEFLDDKIQVTPPVQLTPPVQVTPVRQSQRNSGKKFNFAETSSEASSGESEGNTSDEDEKPLLEPESSTRSREESQDGNGITASASKLPEELPAKREKLKSKDSKLVQATLSNLFKKAEEKTAGTSKAKSSSKA
Regarding B2, the binding result is reported as “binds”.
